Assay results taken from US20260209348A1.
Numbering of substitutions follows the chain as printed. No constants are given. Whether binding was seen depends on the method and setting. For some assays here: Binding can be weak; no strength is given.

B1: h6E6-063 (antibody, human IgG1, V domains shown)
VH: EVQLVESGGGLVKPGGSLRLSCAASGFTFSAYGTSWVRQAPGKGLEWVSTISSGGGYTYYAASVKGRFTISRDNAKNSLYLQMNSLRAEDTAVYYCARHPRDFSYAIDYWGQGTTVTVSS
VL: EIVMTQSPATLSVSPGERATLSCRASQDVGHYLAWYQQKPGQAPRLLIYWASTRATGIPARFSGSGSGTEFTLTISSLQSEDFAVYYCQQYNIYPWTFGQGTKVEIK
B2: h6E6-068 (antibody, human IgG1, V domains shown)
VH: B1 VH with A31S, T34I, Y59H, A62H, I107L
VL: B1 VL with R24K
B3: h6E6-107 (antibody, human IgG1, V domains shown)
VH: B1 VH with A31T, T34A, Y59H, A62P, I107L
VL: B1 VL with R24K, L33V
B4: h6E6-116 (antibody, human IgG1, V domains shown)
VH: B1 VH with A31T, T34V, Y59H, A62G, I107L
VL: B1 VL
B5: h6E6-007 (antibody, human IgG1, V domains shown)
VH: B1 VH with A31G, T34L, Y59H, A62P, I107Q
VL: B1 VL with R24K, L33V
B6: h6E6-029 (antibody, human IgG1, V domains shown)
VH: B1 VH with A31H, T34V, Y59H, A62Q, I107Q
VL: B1 VL with R24K, L33V, A55H
B7: h6E6-040 (antibody, human IgG1, V domains shown)
VH: B1 VH with A31S, T34H, Y59H, A62P, I107H
VL: B1 VL with L33V
B8: h6E6-055 (antibody, human IgG1, V domains shown)
VH: B1 VH with A31Q, T34H, Y59H, A62E, I107Q
VL: B1 VL with R24K
B9: h6E6-056 (antibody, human IgG1, V domains shown)
VH: B1 VH with A31K, Y59H, A62P, I107Q
VL: B1 VL with L33V
B10: h6E6-057 (antibody, human IgG1, V domains shown)
VH: B1 VH with A31H, T34V, Y59H, A61V, I107L
VL: B1 VL with R24K, L33V, T97A
B11: h6E6-058 (antibody, human IgG1, V domains shown)
VH: B1 VH with A31V, T34L, Y59Q, A62P, I107F
VL: B1 VL with R24K
B12: h6E6-066 (antibody, human IgG1, V domains shown)
VH: B1 VH with T34S, Y59H, A62P, I107H
VL: B1 VL with R24K, L33V, A55H
B13: h6E6-070 (antibody, human IgG1, V domains shown)
VH: B1 VH with A31Q, T34H, Y59H, A62H, I107N
VL: B1 VL
B14: h6E6-072 (antibody, human IgG1, V domains shown)
VH: B1 VH with A31Q, T34H, Y59H, A62D, I107Q
VL: B1 VL with R24K, A55H
B15: h6E6-077 (antibody, human IgG1, V domains shown)
VH: B1 VH with A31H, Y59H, A62P
VL: B1 VL with R24K, L33V
B16: h6E6-102 (antibody, human IgG1, V domains shown)
VH: B1 VH with A31K, T34L, Y59H, A61V, A62E, I107S
VL: B1 VL with R24K, L33V

Molecular target: hKringle human/mouse hybrid ROR2
Experiment: dot blot on nylon membrane, anti-human IgG-HRP

| Binder | binding |
| --- | --- |
| B1 | binds |
| B2 | binds |
| B3 | binds |
| B4 | binds |
| B5 | binds |
| B6 | binds |
| B7 | binds |
| B8 | binds |
| B9 | binds |
| B10 | binds |
| B11 | binds |
| B12 | binds |
| B13 | binds |
| B14 | binds |
| B15 | binds |
| B16 | binds |

Molecular target: hCRD human/mouse hybrid ROR2
Experiment: dot blot on nylon membrane, anti-human IgG-HRP

| Binder | binding |
| --- | --- |
| B1 | no binding |
| B2 | no binding |
| B3 | no binding |
| B4 | no binding |
| B5 | no binding |
| B6 | no binding |
| B7 | no binding |
| B8 | no binding |
| B9 | no binding |
| B10 | no binding |
| B11 | no binding |
| B12 | no binding |
| B13 | no binding |
| B14 | no binding |
| B15 | no binding |
| B16 | no binding |

Molecular target: hKringle human/mouse hybrid ROR2
Experiment: dot blot of arrayed recombinant proteins (key on the sheet)

| Binder | binding |
| --- | --- |
| B13 | binds |
| B16 | binds |

Molecular target: hCRD human/mouse hybrid ROR2
Experiment: as above

| Binder | binding |
| --- | --- |
| B1 | no binding |
| B11 | no binding |
| B13 | no binding |
| B15 | no binding |
| B16 | no binding |

Molecular target: hKringle human/mouse hybrid ROR2
Experiment: dot blot

| Binder | binding |
| --- | --- |
| B1 | binds |
| B2 | binds |
| B3 | binds |
| B4 | binds |
| B5 | binds |
| B6 | binds |
| B7 | binds |
| B8 | binds |
| B9 | binds |
| B10 | binds |
| B11 | binds |
| B12 | binds |
| B13 | binds |
| B14 | binds |
| B15 | binds |
| B16 | binds |

Molecular target: hCRD human/mouse hybrid ROR2
Experiment: dot blot

| Binder | binding |
| --- | --- |
| B1 | no binding |
| B2 | no binding |
| B3 | no binding |
| B4 | no binding |
| B5 | no binding |
| B6 | no binding |
| B7 | no binding |
| B8 | no binding |
| B9 | no binding |
| B10 | no binding |
| B11 | no binding |
| B12 | no binding |
| B13 | no binding |
| B14 | no binding |
| B15 | no binding |
| B16 | no binding |
